Experimental data taken from publication PMC11879689, “Integrative in silico and biochemical analyses demonstrate direct Arl3-mediated ODA16 release from the intraflagellar transport machinery” (The Journal of Biological Chemistry, 2025).
No constants are given. Whether binding was seen depends on the method and setting. For some of these results: A result given as binding can be weak or reduced; the word gives no strength. For some of these results: Tags and fused reporters may be left off the sequences shown. One block for each molecule: values may come before it.

By UniProt entry, the sequences of proteins in these tests, tags left out. Where a name states a change or a piece, a line headed by the entry shows the natural chain unless it says otherwise.
UniProt A8ISN6: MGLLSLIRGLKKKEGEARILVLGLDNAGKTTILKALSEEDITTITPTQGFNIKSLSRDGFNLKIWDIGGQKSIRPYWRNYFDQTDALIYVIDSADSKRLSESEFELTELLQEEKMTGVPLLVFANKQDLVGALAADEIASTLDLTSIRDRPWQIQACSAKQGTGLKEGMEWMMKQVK

Key:
[1] = target: T1, hexa-His-tagged CrODA16 (CrODA16-HT) (Chlamydomonas reinhardtii, UniProt Q3Y8L7 1-446); assay: pull-down; CrODA16-HT immobilised on nickel resin; CrArl3 variant reloaded with 1 mM MgCl2 and 1 mM nucleotide (GTP for Q70L, GDP for T30N); both purified
T1 construct: ODA16, Chlamydomonas reinhardtii; Bait on nickel resin
T1 sequence (looked up): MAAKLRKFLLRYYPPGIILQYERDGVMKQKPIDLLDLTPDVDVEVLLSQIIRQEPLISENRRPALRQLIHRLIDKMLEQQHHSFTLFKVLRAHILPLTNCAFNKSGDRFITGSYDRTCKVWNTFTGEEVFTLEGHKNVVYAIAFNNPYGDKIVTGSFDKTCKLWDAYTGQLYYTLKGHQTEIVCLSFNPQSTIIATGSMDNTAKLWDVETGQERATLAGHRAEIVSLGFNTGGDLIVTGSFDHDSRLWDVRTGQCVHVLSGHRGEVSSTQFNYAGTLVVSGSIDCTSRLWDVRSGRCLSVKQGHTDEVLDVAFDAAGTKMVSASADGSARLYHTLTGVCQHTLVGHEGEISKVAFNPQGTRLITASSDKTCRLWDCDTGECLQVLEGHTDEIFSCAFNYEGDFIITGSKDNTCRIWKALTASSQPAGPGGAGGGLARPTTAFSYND

[2] = target: T2, full-length CrODA16 (CrODA16fl) (Chlamydomonas reinhardtii, UniProt Q3Y8L7 1-446); assay: SEC; Superose 6 Increase 10/300 column; SDS-PAGE of the peaks; both purified
T2 construct: ODA16, Chlamydomonas reinhardtii, full length (N-terminal domain residues 1-80, C-terminal beta-propeller residues 80-445); it may be the same protein as CrODA16-HT
T2 sequence (looked up): T1 sequence (looked up)

[3] = target: T1, hexa-His-tagged CrODA16 (CrODA16-HT); assay: pull-down; CrODA16-HT immobilised on nickel resin; two preys added together (CrIFT46 with CrIDA3, also at 3:1 excess of CrIFT46; CrIFT46 with CrArl3), beside each prey alone; both purified
[4] = target: GST-CrArl3_Q70L (Chlamydomonas reinhardtii) (UniProt A8ISN6); assay: condition: prey 20–30 μM, bait 10 μM (general pull-down methods); pull-down; GST-tagged bait (10 μM) immobilised on GSH resin, prey 20–30 μM, 1 h 4 °C; 10 mM HEPES pH 7.5, 200 mM NaCl, 2 mM MgCl2, 1 mM DTT; eluted with 33 mM reduced glutathione, SDS-PAGE; both purified
[5] = target: GST-CrArl3_Q70L (Chlamydomonas reinhardtii) (UniProt A8ISN6); assay: pull-down; GST-tagged bait (10 μM) immobilised on GSH resin, prey 20–30 μM, 1 h 4 °C; 10 mM HEPES pH 7.5, 200 mM NaCl, 2 mM MgCl2, 1 mM DTT; eluted with 33 mM reduced glutathione, SDS-PAGE; both purified
[6] = target: GST-CrArl3 (variant not named) (Chlamydomonas reinhardtii) (UniProt A8ISN6); assay: pull-down; competitive binding (titration) assay: GST-tagged bait (10 μM) pre-complexed with CrODA16 (20 μM) on GSH resin, washed, then untagged competitor at rising concentrations, 1 h 4 °C; eluted with 33 mM glutathione, SDS-PAGE; both purified

Molecule: CrArl3_T30N (GDP-locked) (from UniProt A8ISN6) (enzyme)
binding [1]: binds

Molecule: CrArl3 (untagged; variant not named) (from UniProt A8ISN6) (enzyme)
binding [2]: binds
binding [3]: binds

B3: CrODA16 C-terminal β-propeller, CrODA16C(80-423) (domain or fragment, UniProt Q3Y8L7 80-423)
chain: QHHSFTLFKVLRAHILPLTNCAFNKSGDRFITGSYDRTCKVWNTFTGEEVFTLEGHKNVVYAIAFNNPYGDKIVTGSFDKTCKLWDAYTGQLYYTLKGHQTEIVCLSFNPQSTIIATGSMDNTAKLWDVETGQERATLAGHRAEIVSLGFNTGGDLIVTGSFDHDSRLWDVRTGQCVHVLSGHRGEVSSTQFNYAGTLVVSGSIDCTSRLWDVRSGRCLSVKQGHTDEVLDVAFDAAGTKMVSASADGSARLYHTLTGVCQHTLVGHEGEISKVAFNPQGTRLITASSDKTCRLWDCDTGECLQVLEGHTDEIFSCAFNYEGDFIITGSKDNTCRIWKALTASS
binding [5]: binds

Next, values leading:

binding [4]: no binding
B1: CrODA16 N-terminal domain, CrODA16N(1-80) (domain or fragment, UniProt Q3Y8L7 1-80)
chain: MAAKLRKFLLRYYPPGIILQYERDGVMKQKPIDLLDLTPDVDVEVLLSQIIRQEPLISENRRPALRQLIHRLIDKMLEQQ

binding [5]: binds
binding [6]: binds
B2: full-length CrODA16 (CrODA16fl) (protein, UniProt Q3Y8L7 1-446)
chain: T1 sequence (looked up)
